In article PMC7031616:
These are yes or no findings as the source states them, for the method shown. Binding seen in cells or lysates may run through a third protein. Here binding means that the protein was enriched with, or labelled near, the bait; the list need not be complete. No binding means not detected with the bait.

Target: 3× hemagglutinin (3×HA)-tagged MYR1 (Toxoplasma gondii (type I RH strain))
Assay: affinity purification with mass spectrometry

Binder	binding
ROP17 (protein, UniProt Q2PAY3 22-608) LLLRSPTSNDVFGELVASAERAQPLATRLTKRISRLNFNDREDDFWEDHGDASWNNSYTLVNGRTTLGSENRRRPASHSLIERPYYRDGRLSPVLGVQERRGRSVHSYHEEPVSFFDQRAFDEYTFRRRSQLHRQRARAGLRSRIKQNVRRLWTSARGAVRGWGRRVRRKIGDLFVGHLMPQLRRLRFWDQGLPPVVPPLIGNEPGQASVALVAERMEARLREKTLTEKNPTEAQQAVGTYLINSAENTWFISIPGGRYILLKKRGFLGGGGFGLVYHVEHPTTGQPFALKIFVQRVMNNEVGDKISDLIEDEFGVMKYFPPEWTPARMYSELRFMVPLLKLRVLGKPEFQDARNHLRIFSVCALFPKAQGDLEEAAALLADMDRTNAYNMRMSSTIQMVKLLARFHAFGLVHGDVKLQNFLVDKSGLLLLSDFTQILRTNERRYPPVVTVLYMSPEIATCLITRLRNAIPYTAEIDSWMLGISLYRLWCGDFPFGITLDATALQVAGIVIRSSASSLDFASCHDIPEQFREMIVGFLRKTPGVRLSPQQALEQFSLLNWKGPSPASDTASESEPVSTEEAALLQKE	no binding
GRA7 (TGGT1_203310) (protein, UniProt O00933 27-236) ATASDDELMSRIRNSDFFDGQAPVDSLRPTNAGVDSKGTDDHLTTSMDKASVESQLPRREPLETEPDEQEEVHFRKRGVRSDAEVTDDNIYEEHTDRKVVPRKSEGKRSFKDLLKKLALPAVGMGASYFAADRLVPELTEEQQRGDEPLTTGQNVGTVLGFAALAAAAAFLGMGLTRTYRHFSPRKNRSRQPALEQEVPESGEDGEDARQ	binds
